Results deposited as PubChem BioAssay AID602196 (INSERM, 2012)
Assay: 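Modifiers of cisplatin sensitivity in A549 cells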. Cell system: human A549 lung cancer cells. Knock-down reagent: siRNA pair against human genes. Duration: 48 h transfection before cisplatin; time from cisplatin to read-out not stated. Conditions: cisplatin at a dose killing half of control-siRNA cells; exact dose and duration not given. Measurement: 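Shift in cisplatin death relative to control siRNA, from -50 (all cells die) to +50 (no cells die); siRNAs harmful on their own scored 0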. Scale: two-siRNA summed score (-2 to +2): higher = both siRNAs protect from cisplatin killing; -2 means both sensitise; mean protection from cisplatin (shift in death) and protection from cisplatin (shift in death), siRNA C and protection from cisplatin (shift in death), siRNA D: higher = protection from cisplatin killing. Active means: 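siRNAs harmful alone (LDH or WST-1) get 0; others get +1 for less and -1 for more cisplatin killing; genes are active when the two siRNAs give the same sign, summing to ±2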. Calls: active = both siRNAs shift cisplatin killing the same way; inactive = no consistent shift, or siRNA harmful alone.
In all, the deposit lists about 23,000 reagents; below is a part drawn at random. Of all reagents, 455 (2%) got an active call. 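Active includes both protection and sensitisation; some change values fall well beyond the stated -50 to +50 range.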 Entries without a mark were called inactive. The record does not give: the amount of reagent.

gene | PubChem SID | two-siRNA summed score (-2 to +2) | mean protection from cisplatin (shift in death) (%) | protection from cisplatin (shift in death), siRNA C (%) | protection from cisplatin (shift in death), siRNA D (%)
ANAPC15 (anaphase promoting complex subunit 15) | SID131503874 | 0 | -7.4 | -13.8 | -0.9
NMI (N-myc and STAT interactor) | SID131510550 | 0 | 3.4 | -6.7 | 13.5
CXorf58 (chromosome X open reading frame 58) | SID131512942 | 0 | 6 | 6.1 | 6
DHRS7 (dehydrogenase/reductase 7) | SID131502850 | 0 | -23.1 | -17.9 | -28.2
DAPK2 (death associated protein kinase 2) | SID131522335 | 1 | 17.8 | 3.2 | 32.3
TCP11L1 (t-complex 11 like 1) | SID131501538 | -1 | -9.1 | -5.1 | -13.2
EPB41L4B (erythrocyte membrane protein band 4.1 like 4B) | SID131504781 | 0 | -4.5 | -5.2 | -3.8
LGALS4 (galectin 4) | SID131504379 | 0 | -5.6 | -1 | -10.2
LOC338734 | SID131523094 | 2 (active) | 19.6 | 20 | 19.2
ACADS (acyl-CoA dehydrogenase short chain) | SID131519064 | 1 | 1.8 | 14.3 | -10.6
DENR (density regulated re-initiation and release factor) | SID131516365 | 0 | 10.7 | 13.8 | 7.7
LOC400708 | SID131506400 | 0 | -1.6 | -4.2 | 1.1
IL12RB1 (interleukin 12 receptor subunit beta 1) | SID131521784 | 1 | 14.9 | 9.1 | 20.7
HOXC13 (homeobox C13) | SID131501357 | -1 | -10.3 | -12.9 | -7.7
MORF4L1 (mortality factor 4 like 1) | SID131510518 | 0 | 3.3 | 3.1 | 3.6
OR11A1 (olfactory receptor family 11 subfamily A member 1) | SID131510266 | 0 | 3.1 | -7.8 | 13.9
RNASE2 (ribonuclease A family member 2) | SID131503007 | 0 | -16.2 | -15.7 | -16.7
DERL2 (derlin 2) | SID131518379 | 0 | 18.9 | 35.7 | 2
SSNA1 (SS nuclear autoantigen 1) | SID131501542 | -1 | -9.1 | 0.4 | -18.6
LSP1 (lymphocyte specific protein 1) | SID131505354 | 0 | -3.3 | -1.8 | -4.8
LSP1 (lymphocyte specific protein 1) | SID131516067 | 0 | 10.2 | 12.1 | 8.3
ASAH1 (N-acylsphingosine amidohydrolase 1) | SID131500790 | -1 | -16 | -21.5 | -10.5
KPNB1 (karyopherin subunit beta 1) | SID131502832 | 0 | -26.2 | -34.5 | -17.8
SLC25A39 | SID131501216 | -1 | -11.3 | -30.2 | 7.5
LOC440421 | SID131516442 | 0 | 10.9 | 11.9 | 9.8
DCP1A (decapping mRNA 1A) | SID131512328 | 0 | 5.4 | 8.5 | 2.2
STON2 (stonin 2) | SID131520876 | 1 | 11.4 | 4.2 | 18.6
IL23R (interleukin 23 receptor) | SID131500342 | -2 (active) | -20.9 | -12.8 | -29
ZNF114 (zinc finger protein 114) | SID131504672 | 0 | -4.8 | -4.9 | -4.6
HSD17B1 (hydroxysteroid 17-beta dehydrogenase 1) | SID131503912 | 0 | -7.2 | -4.3 | -10
MAGEA8 (MAGE family member A8) | SID131522063 | 1 | 16.1 | 4.1 | 28.1
MAGED4B (MAGE family member D4B) | SID131512904 | 0 | 6 | 11.7 | 0.3
EVC2 (EvC ciliary complex subunit 2) | SID131506327 | 0 | -1.7 | -5.9 | 2.5
OR52I1 (olfactory receptor family 52 subfamily I member 1) | SID131517797 | 0 | 14.8 | -8.5 | 38.2
LSM12 (LSM12 homolog) | SID131502741 | -1 | 4.8 | 21.1 | -11.4
WDR49 (WD repeat domain 49) | SID131503582 | 0 | -9.1 | -13.9 | -4.2
DLGAP2 (DLG associated protein 2) | SID131509761 | 0 | 2.5 | 7.7 | -2.7
PDCD1 (programmed cell death 1) | SID131505173 | 0 | -3.6 | -1.1 | -6.1
LOC389353 | SID131515876 | 0 | 9.8 | 8.9 | 10.8
TMEM161A (transmembrane protein 161A) | SID131519119 | 1 | 2.7 | -12.1 | 17.4
SPRED1 (sprouty related EVH1 domain containing 1) | SID131522499 | 1 | 19.2 | 24.1 | 14.3
MED12 (mediator complex subunit 12) | SID131501439 | -1 | -9.7 | -15 | -4.5
KLK13 (kallikrein related peptidase 13) | SID131516923 | 0 | 12 | 2 | 21.9
DEFA6 (defensin alpha 6) | SID131507144 | 0 | -0.5 | -2.4 | 1.4
CBR4 (carbonyl reductase 4) | SID131523092 | 2 (active) | 19.5 | 22.7 | 16.3
LOC253289 | SID131511385 | 0 | 4.3 | -4.3 | 12.8
LOC401025 | SID131515494 | 0 | 9.3 | 7.7 | 10.8
PLPP5 (phospholipid phosphatase 5) | SID131504482 | 0 | -5.2 | -5.7 | -4.8
MMS22L (MMS22 like, DNA repair protein) | SID131514429 | 0 | 7.8 | 5.2 | 10.3
FAM120AOS (family with sequence similarity 120 member A opposite strand) | SID131504363 | 0 | -5.6 | -11.9 | 0.7
PCDHGA5 (protocadherin gamma subfamily A, 5) | SID131513451 | 0 | 6.6 | 5.2 | 8
HSPA4L (heat shock protein family A (Hsp70) member 4 like) | SID131519504 | 1 | 6 | -2.7 | 14.7
ACTB (actin beta) | SID131506073 | 0 | -2.1 | -6.4 | 2.3
LRFN4 | SID131511537 | 0 | 4.5 | -10.1 | 19
BAGE3 (BAGE family member 3) | SID131518266 | 0 | 17.7 | 8.3 | 27.1
GPR173 (G protein-coupled receptor 173) | SID131505818 | 0 | -2.5 | 13.2 | -18.3
GSTK1 (glutathione S-transferase kappa 1) | SID131510359 | 0 | 3.2 | 16.1 | -9.7

Quoted from above (4 entries):
gene | PubChem SID | two-siRNA summed score (-2 to +2) | mean protection from cisplatin (shift in death) (%) | protection from cisplatin (shift in death), siRNA C (%) | protection from cisplatin (shift in death), siRNA D (%)
OR52I1 (olfactory receptor family 52 subfamily I member 1) | SID131517797 | 0 | 14.8 | -8.5 | 38.2
LSM12 (LSM12 homolog) | SID131502741 | -1 | 4.8 | 21.1 | -11.4
WDR49 (WD repeat domain 49) | SID131503582 | 0 | -9.1 | -13.9 | -4.2
DLGAP2 (DLG associated protein 2) | SID131509761 | 0 | 2.5 | 7.7 | -2.7
